This note sets out measurements from patent publication US20230391826A1, “COMPOSITIONS AND METHODS FOR TREATING DISEASES” (Sanford Burnham Prebys Medical Discovery Institute, priority 2020, published 2023).

Sequences of proteins named here, by UniProt entry; tags and fusion partners are left off. A change or cut given only in a name is not applied to a line headed by its entry.
UniProt P29317: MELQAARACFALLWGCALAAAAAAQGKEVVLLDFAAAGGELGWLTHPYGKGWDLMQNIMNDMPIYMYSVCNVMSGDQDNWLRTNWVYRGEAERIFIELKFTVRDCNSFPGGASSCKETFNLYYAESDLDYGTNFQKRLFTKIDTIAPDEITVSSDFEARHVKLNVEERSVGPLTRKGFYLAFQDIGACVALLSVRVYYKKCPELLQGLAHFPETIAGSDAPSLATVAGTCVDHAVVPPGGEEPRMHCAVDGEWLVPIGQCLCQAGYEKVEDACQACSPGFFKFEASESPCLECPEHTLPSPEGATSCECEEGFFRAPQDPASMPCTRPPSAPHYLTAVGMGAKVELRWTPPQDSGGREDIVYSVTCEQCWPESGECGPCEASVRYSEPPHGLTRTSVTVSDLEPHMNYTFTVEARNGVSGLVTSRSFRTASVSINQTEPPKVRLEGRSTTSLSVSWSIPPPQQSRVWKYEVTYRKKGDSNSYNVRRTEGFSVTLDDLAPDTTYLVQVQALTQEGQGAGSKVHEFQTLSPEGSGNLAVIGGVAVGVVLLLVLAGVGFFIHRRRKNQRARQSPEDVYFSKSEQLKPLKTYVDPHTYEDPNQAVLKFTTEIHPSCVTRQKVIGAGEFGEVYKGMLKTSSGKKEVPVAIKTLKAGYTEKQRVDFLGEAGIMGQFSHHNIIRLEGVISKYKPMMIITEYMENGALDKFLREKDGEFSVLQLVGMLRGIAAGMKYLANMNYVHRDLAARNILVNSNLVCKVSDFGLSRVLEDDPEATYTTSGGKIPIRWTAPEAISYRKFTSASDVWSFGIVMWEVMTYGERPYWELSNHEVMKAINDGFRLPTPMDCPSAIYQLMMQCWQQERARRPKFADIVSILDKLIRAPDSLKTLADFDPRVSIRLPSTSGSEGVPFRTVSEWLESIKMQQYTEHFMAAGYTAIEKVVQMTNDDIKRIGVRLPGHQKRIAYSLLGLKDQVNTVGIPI

These are yes or no findings as the source states them, for the method shown. Binding can be weak; no strength is given.

This assay addresses EphA2 ligand binding domain (EphA2 LBD), residues 28-200 (UniProt P29317). The experiment in a line: ITC, soluble EphA2 LBD and peptide. On the technique in general: ITC needs no label: the signal is the heat of the interaction.

As to CGAWLAYPDSVPYR (N-terminal Cys of the two chains joined by a disulfide) [CGA-WLA-YR dimer (N-ter)], the binding result is on record as “binds”. Take AWLAYPDSVPYRPKC (βAla (βA) at position 1; C-terminal Cys of the two chains joined by a disulfide) [βA-WLA-YRPKC dimer (C-ter)]: the binding result is “binds”. Turning to AWLAYPDSVPYGSGC (βAla (βA) at position 1; C-terminal Cys of the two chains joined by a disulfide) [βA-WLA-YGSGC dimer (C-ter)], the binding result is “binds”.
